These results are taken from US20250057918A1.

Assay [1] deals with T1, mouse IL-18BP (amino acids 31-194) (mouse) (UniProt Q9Z0M9).
T1 sequence (chain, biotinylated on the AviTag (BirA ligase)): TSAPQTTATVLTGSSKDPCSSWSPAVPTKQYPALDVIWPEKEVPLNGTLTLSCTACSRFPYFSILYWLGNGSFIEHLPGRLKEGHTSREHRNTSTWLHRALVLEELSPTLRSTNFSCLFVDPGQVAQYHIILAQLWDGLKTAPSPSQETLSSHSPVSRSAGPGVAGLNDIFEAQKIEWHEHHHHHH
The assay is described as follows: SPR, mIL-18 as analyte on immobilised biotinylated mIL-18BP.

In assay [2] the target is T1, mouse IL-18BP (amino acids 31-194) (mouse). The assay is described as follows: flow cytometry, mIL-18BP titrated on yeast-displayed murine IL-18 (binding isotherm, %Max). Background: Flow cytometry measures light scatter and fluorescence of single cells or particles in a stream.

Results are given in words; binding and its absence hold for the method and conditions named. Some entries that bind do so weakly or less than the wild type.

B1: wild-type mouse IL-18 (mature form) (ligand)
chain: NFGRLHCTTAVIRNINDQVLFVDKRQPVFEDMTDIDQSASEPQTRLIIYMYKDSEVRGLAVTLSVKDSKMSTLSCKNKIISFEEMDPPENIDDIQSDLIFFQKRVPGHNKMEFESSLYEGHFLACQKEDDAFKLILKKKDENGDKSVMFTLTNLHQS
Consider B1, for which the binding entry in assay [1] and in assay [2] was “binds” throughout.
